Data: patent US20100144743A1, “COMPOSITIONS AND METHODS FOR INHIBITION OF TYROSINE KINASES” (BOARD OF REGENTS, THE UNIVERSITY OF TEXAS SYSTEM, priority 2006, published 2010)
At least one structure is not confirmed: it was looked up by name or label, or the drawing left a doubt.

Test system: C6#4 cells
Conditions: read-out: WST-1 (EC-50), 24 h exposure, WST-1 4 h, Table 2

O=C(NCCO)c1cccc(-c2cnc3c(NCc4cccs4)nccn23)c1 [LG2-98]
EC50: 367 µM
